{
  "source": "paper PMC10042772",
  "about": "(Targeted Oncology, 2023)",
  "tested_on": "MDA-MB-453 cells",
  "test": "CellTiter-Glo 2.0 viability assay, 10 days",
  "assay_type": "cell-based",
  "conditions": "Homo sapiens, MDA-MB-453, 240 h, read-out: IC50, proliferation (CTG)",
  "data": [
    {"compound": "CNC(=O)c1ccc(N2C(=S)N(c3ccc(C#N)c(C(F)(F)F)c3)C(=O)C2(C)C)cc1F", "note": "[Enzalutamide, enzalutamide]", "values": [
      {"measurement": "IC50", "result": 11.7, "unit": "µM"}
    ]}
  ]
}
